Test results reported in PubChem BioAssay AID493014 (National Center for Advancing Translational Sciences (NCATS), 2011).
Screen size: about 340,000 compounds; about 170 (0.05%) were called active. The shares of active, inactive and inconclusive entries below differ from those in the screen. Calls come from the whole dose curve; as a rule, active = well fitted inhibition curve with a large enough effect in the signal ratio, with a control signal flat (not every such curve was filed as active); inconclusive = small, poorly fitted or top-dose-only effect, or effect the other way, or a change in a side signal; inactive = flat fitted curve, though single readings scatter; the % refers to the signal ratio. Potencies beside an inconclusive call are fits to weak or partial responses and may not hold up.

Assay: qHTS Assay to Find Inhibitors of Chronic Active B-Cell Receptor Signaling;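 for activity change, negative = inhibition: plate controls were basal doxycycline-induced cells for no effect and cells given 10 µM MG132 for full effect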
Settings: ABC-DLBCL IkBa-CBG/CBR reporter, luminescence ratio (green luciferase fused to IkBa over red control in TMD8 lymphoma cells), 4 h; activity change, negative = inhibition: at 46.1 µM (top of the series) unless noted
How it was run: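 TMD8 ABC-DLBCL cells carrying doxycycline-inducible green luciferase fused to IkappaBalpha plus unfused red luciferase were exposed to compounds (up to 46 uM) for 4 hrs at 37C. Activity came from the overlap-corrected green/red luminescence ratio.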
Potency is the fitted concentration of half-maximal effect.

Row | SMILES | activity change, negative = inhibition | Potency
1 | CC(C)CC1Nc2ncnc(N3CCN(c4ccccc4)CC3)c2N(Cc2ccc(Br)cc2)C1=O (configuration not stated) | inactive: -7.87% | 
2 | CC(C)(C)c1csc(NC(=O)Cn2cnc3ccccc3c2=O)n1 |  | inconclusive: 25.9 µM [rising, partial curve, poor fit]
3 | Clc1cccc(-c2nc(-c3ccccn3)no2)c1 |  | inconclusive: 35.5 µM [rising, single point]
4 | O=C(Nc1sc2c(c1C(=O)O)CCCC2)c1cccc(Cl)c1 | inconclusive: 223% | 
5 | Cc1ccc(-c2ccc(SCC(=O)NC3CCCCC3)nn2)cc1 | inactive: 2.08% | 
6 | O=C(Cc1ccccc1)N/N=C/c1ccc[nH]1 | inactive: -6.47% | 
7 | O=C(CNC(=S)NC(=O)c1cccs1)c1ccccc1 | inconclusive: 1.91% | 
8 | CC(C)(C)OC(=O)N1CCC(C(=O)Nc2ccc3c(c2)CCC3)CC1 | inactive: -0.19% | 
9 | Cc1ccc(CC2C(=O)N(c3ccc(C)cc3)C(=O)C2C)cc1 (configuration not stated) | inconclusive: 23.5% | 
10 | O=C(CCNC(=O)c1ccc([N+](=O)[O-])cc1)Nc1cc(Cl)ccc1N1CCOCC1 | inconclusive: -1.29% | 
11 | Cc1ccc(C)c(N(CC(=O)NC2CCCC2)C(=O)c2cc3cc4cccc(C)c4nc3s2)c1 | inconclusive: 13.7% | 
12 | O=C(CCC1CCCCC1)NCCN1C2=NC[C@@H](Cc3ccccc3)N2C[C@H]1Cc1ccc(O)cc1 | inconclusive: -21.4% | 
13 | Cc1ccc(/C=N/Nc2nncn2N)cc1 |  | inconclusive: 22.4 µM [falling, single point]
14 | Cc1ccc(C(=O)N2CCCC(c3ccccc3)=N2)cc1 |  | inconclusive: 22.4 µM [falling, partial curve, poor fit]
15 | O=[N+]([O-])C(=C1Nc2ccccc2N1)C(Cl)=C(Cl)Cl |  | inconclusive: 12.6 µM [falling, partial curve]
16 | CCCCNC(=S)NCc1ccc2c(c1)cc(C)n2C | inconclusive: -2.04% | 
17 | Cn1c(=O)n(CC(N)=O)c2ccccc21 | inconclusive: -0.144% | 
18 | CCN(CC)CCn1c(NC(=O)c2ccc(Cl)cc2)nc2ccccc21 | inconclusive: -29.9% | 
19 | Cn1c(SCC(=O)N/N=C/C=C/c2ccco2)nc2ccccc21 |  | inconclusive: 16.4 µM [falling, partial curve]
20 | CN(C)C(=O)c1ccc(-c2cc3onc(-c4ccccc4)c3c(=O)n2C)cc1 |  | inconclusive: 18.4 µM [falling, single point]
21 | COc1cccc(NC(=O)n2ncc3c(C)cccc32)c1 |  | inconclusive: 35.5 µM [rising, single point]
22 | CC1(C)CC(=O)C2=C(C1)OC(N)=C(C#N)C21CCN(C(=O)OCc2ccccc2)CC1 | inconclusive: 9.48% | 
23 | Cc1ccccc1NC(=O)NCCCCc1ccccc1 |  | inconclusive: 20 µM [falling, partial curve, poor fit]
24 | O=C(NCC1CCCO1)c1coc2nc3ccccc3nc12 (configuration not stated) |  | inconclusive: 25.1 µM [falling, single point]
25 | COc1ccc(C)cc1NC(=O)C(=O)c1cn(CC(=O)N2CCCC2)c2ccccc12 |  | inconclusive: 35.5 µM [rising, single point]
26 | CCn1c(O)c(N=NC(=S)NCC2CCCO2)c2ccccc21 (configuration not stated) |  | inconclusive: 6.31 µM [falling, single point]

Row | SMILES | activity change, negative = inhibition | Potency
27 | O=C(Nc1ccon1)c1cccc(Cl)c1 | inconclusive: 2.24% | 
28 | COc1ccc(/C(C#N)=C/c2cccnc2)cc1 | inconclusive: -0.0201% | 
29 | Cn1cc(C2=C(c3ccc(Cl)cc3Cl)C(=O)NC2=O)c2ccccc21 | inactive: -9.95% | 
30 | COc1ccc(NC(=O)CN(C)C(=O)c2cccc3ccccc23)cc1 |  | inconclusive: 11.6 µM [rising, partial curve, poor fit]
31 | O=C(Nc1nc2ccc3ccccc3c2s1)c1ccc(N2CCCCC2)c([N+](=O)[O-])c1 |  | inconclusive: 10.3 µM [falling, partial curve]
32 | CCOC(=O)c1cccc(NC(=O)c2ccco2)c1 |  | inconclusive: 29.1 µM [falling, single point]
33 | Cc1ccc(NS(=O)(=O)c2ccccc2F)cc1S(=O)(=O)N1CCCCCC1 |  | inconclusive: 14.6 µM [rising, partial curve, poor fit]
34 | CCCC(=O)C1=C(c2ccccc2)C(C#N)(C#N)C(C#N)=C1N | inconclusive: 5.39% | 
35 | Cn1cccc1-c1nc2ccc(NC(=O)c3cccs3)cc2[nH]1 | inconclusive: -2.17% | 
36 | CCc1c(C(=O)Nc2ccccc2)c(C)[nH]c(=S)c1C#N | inactive: -1.34% | 
37 | COc1cc2c(cc1NC(=O)CN(C)Cc1ccc(OC)c(OC)c1)oc1ccccc12 | inconclusive: 26.3% | 
38 | CCCC(=O)NC(c1ccc(OC)c(OC)c1)c1cc(Cl)c2cccnc2c1O (configuration not stated) | inactive: 7.06% | 
39 | CC(=O)c1ccc(OC(=O)c2nc(-c3ccccc3)oc2C)cc1 |  | inconclusive: 1.78 µM [rising, full curve, poor fit]
40 | CN(C)CC(O)COc1ccc(C(C)(C)c2ccc(OCC(O)CN(C)C)cc2)cc1 (configuration not stated) |  | inconclusive: 12.6 µM [falling, partial curve]
41 | CCOc1ccc(Nc2oc(-c3ccco3)nc2C#N)cc1 | inconclusive: 4.28% | 
42 | CC1(C)CC(=O)C(C=NCCN2CCN(C(=O)CCl)CC2)=C(O)C1 |  | inconclusive: 35.5 µM [falling, single point]
43 | O=C(O)c1cc(-c2ccc(Cl)cc2)n(-c2cccc(Cl)c2)n1 | inconclusive: -0.316% | 
44 | CCC1CN(C(=O)NCc2ccc(C)cc2)c2cc(Cl)ccc2O1 (configuration not stated) | inactive: -3.03% | 
45 | Cc1cccnc1NC(=O)c1c(O)c2ccccc2n(C)c1=O | inconclusive: -8.15% | 
46 | CC1CC(C)(C)OC(C[N+]2(C)CCCCC2)O1 (configuration not stated) | inconclusive: 0.528% | 
47 | Cc1cc(NC(=O)c2ccco2)c(=O)n(Cc2cccc(C(F)(F)F)c2)c1 | inconclusive: 1.36% | 
48 | Cc1cccc(NC(=S)Nc2ccccn2)c1C | inconclusive: 4.48% | 
49 | CNC(=S)N/N=C/c1c(C)cccc1Cl |  | inconclusive: 12.6 µM [falling, single point]
50 | O=C(CNc1ccc(C(F)(F)F)cc1)Nc1cccc(S(=O)(=O)N2CCCC2)c1 |  | inconclusive: 18.4 µM [falling, single point]
51 | CNc1ccc(/C=C(\C#N)c2ccccn2)cc1[N+](=O)[O-] | inconclusive: 15.7% | 
52 | C=CC[C@@H](CC(=O)N(CCO)Cc1ccccc1)C(=O)NC[C@@H](OC(=O)[C@@H](CC=C)Cc1ccc(F)cc1)c1ccccc1 | inconclusive: -2.58% | 

Exported with each value named: 3 of the compounds above.
CN(C)C(=O)c1ccc(-c2cc3onc(-c4ccccc4)c3c(=O)n2C)cc1
  Potency: inconclusive: 18.4 µM [falling, single point]
COc1cccc(NC(=O)n2ncc3c(C)cccc32)c1
  Potency: inconclusive: 35.5 µM [rising, single point]
CC1(C)CC(=O)C2=C(C1)OC(N)=C(C#N)C21CCN(C(=O)OCc2ccccc2)CC1
  activity change, negative = inhibition: inconclusive: 9.48%

Next part

Row | SMILES | activity change, negative = inhibition | Potency
53 | CCOC(=O)NNC(=O)C12CC3CC(CC(C3)C1)C2 | inconclusive: 10.9% | 
54 | Fc1ccc(Cn2nnnc2CN2CCN(C3CCCC3)CC2)cc1 | inconclusive: 15.5% | 
55 | NNC(=O)CNC(=O)C12CC3CC(CC(C3)C1)C2 | inconclusive: -2.16% | 
56 | N#Cc1nc(-c2ccc(Cl)cc2)oc1NCc1ccco1 | inconclusive: 23.5% | 
57 | Nc1nc2ccccc2n1C(=O)c1ccco1 |  | inconclusive: 11.6 µM [falling, partial curve, poor fit]
58 | C/C=C(\C)C(=O)NNC(=O)c1sc(-c2ccccc2)nc1C |  | inconclusive: 1.26 µM [rising, full curve, poor fit]
59 | CCCCCCOC(=O)NCC(O)c1ccccc1 (configuration not stated) | inconclusive: -8% | 
60 | CCc1c(O)nc(SCC(=O)Nc2nc3ccccc3s2)n(-c2ccccc2)c1=O | inconclusive: -4.65% | 
61 | Cc1ccc(S(=O)(=O)Nc2cccc3ncccc23)s1 |  | inconclusive: 2 µM [falling, partial curve, poor fit]
62 | COc1ccc(NC(=S)NCc2cccnc2)cc1 | inactive: 7.2% | 
63 | COCCN(C(=O)COC(=O)CSc1ccccc1)c1c(N)n(Cc2ccccc2)c(=O)[nH]c1=O | inconclusive: -7.24% | 
64 | CCCN1C(=O)c2cc(C(=O)Nc3ccc(OC)cc3OC)ccc2C1Nc1ccc(OC)cc1OC (configuration not stated) |  | inconclusive: 1.26 µM [falling, partial curve, poor fit]
65 | CC(C)=CCc1c(O)cc2oc3c(CC=C(C)C)c(O)c(O)c(CC=C(C)C)c3c(=O)c2c1O | inactive: -10.2% | 
66 | Cc1ccc(COC(=O)CCc2nc3ccccc3c(=O)[nH]2)cc1 | inconclusive: -2.01% | 
67 | CCOc1ccccc1NC(=O)CSc1nnc2[nH]c(=O)cc(-c3ccccc3)n12 |  | inconclusive: 3.55 µM [falling, single point]
68 | COC(=O)CN1C(=S)N(Cc2ccccc2)C(=O)C1CC(=O)Nc1ccc(Br)cc1 (configuration not stated) | inconclusive: -4.95% | 
69 | COc1cc(/C(C)=N/Nc2ccc(C(=O)O)cc2)cc(OC)c1OC |  | inconclusive: 2.31 µM [rising, full curve, poor fit]
70 | CCCCn1c(=O)n(C)c(=O)c2c(C(F)(F)F)cc(-c3ccncc3)nc21 | inconclusive: 7.78% | 
71 | NNC(=O)c1cc2cc3ccccc3nc2s1 |  | inconclusive: 15.8 µM [rising, partial curve, poor fit]
72 | CCc1cc2c(=O)c(-c3ccc4c(c3)OCCO4)coc2cc1OC(=O)c1ccco1 | inconclusive: 5.24% | 
73 | Cc1ccccc1NC(=O)c1cc(S(=O)(=O)N2CCCCC2)cs1 |  | inconclusive: 7.31 µM [falling, partial curve, poor fit]
74 | Nc1c(C(=O)OCC2CCCO2)c2nc3ccccc3nc2n1C1CCCCC1 (configuration not stated) | inactive: 1.16% | 
75 | CCC(C(=O)NCc1ccco1)n1nc(C)c2c(C)n(-c3ccc(C)cc3)nc2c1=O (configuration not stated) | inactive: 7.87% | 
76 | CC(C)(C)c1ccccc1NC(=S)NC1CCCCC1 | inconclusive: 1.46% | 
77 | CC(=O)Nc1cccc(NC(=O)c2cc([N+](=O)[O-])ccc2N2CCCCC2)c1 | inconclusive: -2.9% | 
